Measured values from publication PMC8357632.
No constants are given. Whether binding was seen depends on the method and setting. For part of these data: In cells and extracts the contact can be indirect. Some binding calls cover weakened binding; strength is not graded here.

What was measured:
[1] = biological target: T1, Prp9 (S. cerevisiae (endogenous in yeast whole-cell extract)) (UniProt P19736); experiment: cryo-EM structure; U257A pre-A complex assembled in yeast extract on U257A Act pre-mRNA; 10.4 Å overall, U1 7.5 Å, U2 13 Å; the ΔBS-A pre-A model fitted into the density
T1 sequence: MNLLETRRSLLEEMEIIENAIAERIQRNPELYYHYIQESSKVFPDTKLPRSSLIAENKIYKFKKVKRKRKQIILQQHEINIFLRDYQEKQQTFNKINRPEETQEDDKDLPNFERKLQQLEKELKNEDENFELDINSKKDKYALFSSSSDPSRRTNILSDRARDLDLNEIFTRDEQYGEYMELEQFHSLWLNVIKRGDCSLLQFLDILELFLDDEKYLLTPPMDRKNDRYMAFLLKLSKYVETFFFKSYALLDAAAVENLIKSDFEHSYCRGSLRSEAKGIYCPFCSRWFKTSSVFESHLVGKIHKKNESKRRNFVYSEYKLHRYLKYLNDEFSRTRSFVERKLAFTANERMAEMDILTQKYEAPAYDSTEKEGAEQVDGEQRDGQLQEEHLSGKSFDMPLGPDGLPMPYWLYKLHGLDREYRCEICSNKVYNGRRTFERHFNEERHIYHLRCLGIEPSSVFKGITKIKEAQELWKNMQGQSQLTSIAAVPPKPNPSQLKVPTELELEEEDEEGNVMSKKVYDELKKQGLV

[2] = biological target: T2, Hsh155 (S. cerevisiae (endogenous in yeast whole-cell extract)) (UniProt P49955); experiment: cross-linking; CXMS: MS2 affinity-purified ΔBS-A pre-A complexes cross-linked with 250 μM BS3 for 1 h at 8 °C, glycerol gradient, tryptic digest, mass spectrometry, pLink 2.3.9, FDR 1% or 5%
T2 sequence: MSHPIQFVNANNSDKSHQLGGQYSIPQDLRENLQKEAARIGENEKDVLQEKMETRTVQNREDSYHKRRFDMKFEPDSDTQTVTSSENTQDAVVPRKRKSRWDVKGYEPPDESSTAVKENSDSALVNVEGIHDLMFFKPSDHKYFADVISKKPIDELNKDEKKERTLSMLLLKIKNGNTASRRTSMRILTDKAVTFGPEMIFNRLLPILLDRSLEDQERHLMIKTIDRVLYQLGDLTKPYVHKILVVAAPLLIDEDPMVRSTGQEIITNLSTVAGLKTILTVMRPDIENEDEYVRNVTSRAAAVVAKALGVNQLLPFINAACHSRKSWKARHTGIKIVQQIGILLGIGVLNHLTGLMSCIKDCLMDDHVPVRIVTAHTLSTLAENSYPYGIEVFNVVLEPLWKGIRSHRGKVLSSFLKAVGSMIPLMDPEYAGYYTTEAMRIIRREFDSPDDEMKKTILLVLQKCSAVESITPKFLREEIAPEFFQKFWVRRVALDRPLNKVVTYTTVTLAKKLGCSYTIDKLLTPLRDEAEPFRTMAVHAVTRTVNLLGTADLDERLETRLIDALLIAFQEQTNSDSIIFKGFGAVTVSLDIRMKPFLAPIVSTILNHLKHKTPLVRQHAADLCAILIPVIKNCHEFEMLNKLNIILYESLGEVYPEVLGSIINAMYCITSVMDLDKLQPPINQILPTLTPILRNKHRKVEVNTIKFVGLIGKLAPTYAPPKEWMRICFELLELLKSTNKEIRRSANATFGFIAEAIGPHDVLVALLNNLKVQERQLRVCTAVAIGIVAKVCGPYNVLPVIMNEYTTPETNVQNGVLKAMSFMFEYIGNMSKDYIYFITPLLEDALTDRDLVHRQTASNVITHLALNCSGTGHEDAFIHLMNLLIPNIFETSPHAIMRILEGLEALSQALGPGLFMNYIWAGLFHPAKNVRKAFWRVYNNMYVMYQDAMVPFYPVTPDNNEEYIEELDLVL

[3] = biological target: T1, Prp9 (S. cerevisiae (endogenous in yeast whole-cell extract)); experiment: cryo-EM structure; ΔBS-A pre-A complex assembled in yeast extract on MS2-tagged ΔBS-A Act pre-mRNA, amylose affinity purified, BS3 and glutaraldehyde gradient fixed; 5.9 Å overall, U1 4.1 Å, U2 5'-region 8.3 Å, U2 3'-region 9.5 Å; U2 components docked as rigid bodies

binding [1]: binds
binding [2]: binds
binding [3]: binds
B1: Prp5 (enzyme, UniProt P21372 1-849)
chain: METIDSKQNINRESLLEERRKKLAKWKQKKAQFDAQKEHQTSRNDIVTNSLEGKQTTEKFTERQERVKEELRKRKNEFRKSDEPVSVKPSKKKSKRSKVKKKISFDFSDDDDSEIGVSFRSKEHIQKAPEHDNEKDPLDEFMTSLKEEKMSNSKGMYDRGDILDVEDQLFELGGTDDEDVEDNTDNSNIAKIAKLKAKKRVKQIYYSPEELEPFQKNFYIESETVSSMSEMEVEELRLSLDNIKIKGTGCPKPVTKWSQLGLSTDTMVLITEKLHFGSLTPIQSQALPAIMSGRDVIGISKTGSGKTISYLLPLLRQVKAQRPLSKHETGPMGLILAPTRELALQIHEEVTKFTEADTSIRSVCCTGGSEMKKQITDLKRGTEIVVATPGRFIDILTLNDGKLLSTKRITFVVMDEADRLFDLGFEPQITQIMKTVRPDKQCVLFSATFPNKLRSFAVRVLHSPISITINSKGMVNENVKQKFRICHSEDEKFDNLVQLIHERSEFFDEVQSENDGQSSDVEEVDAKAIIFVSSQNICDFISKKLLNAGIVTCAIHAGKPYQERLMNLEKFKREKNSILLCTEVLSRGLNVPEVSLVIIYNAVKTFAQYVHTTGRTARGSRSGTAITLLLHDELSGAYILSKAMRDEEIKALDPLQAKELQEMSAKFESGMKKGKFRLSKGFGGKGLENIKSKREEAQNKDLELKKNDKRSDDLEKKISNPREGHDSVSESSALIPRLNYELFKESTDGSIIFYAKVYINDLPQIVRWEATKNTTLLFIKHETGCSITNKGKFYPEGKEPKNENDEPKLYLLIEGQDEKDIQLSIELLEQKVKEGVVKAASLSLKSTKY
